Here are results for 32 molecules from the supplement of paper PMC12889115.

The other results are listed elsewhere or left out. Values are raw readings; no control value is given beside them.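 Primary screen: polymyxin B was added at a level permeabilizing Salmonella outer membranes while sparing inner membranes. DMSO wells, both with and without polymyxin B, established maximum growth. Plate-to-plate variation meant each plate was ranked on its own, and the lowest-OD600 compounds were selected as hits.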

In the test the test system is Salmonella enterica serovar Typhimurium SL1344. Nature of the test: bacterial growth OD600 after 18 h with compound and polymyxin B; higher = more bacterial growth (less inhibition). The conditions noted are these: 50 µM, Mueller-Hinton broth.

Regarding `COc1ccccc1CN1C(=O)O[C@@H]2CN(Cc3nccn3C)C[C@@H]21`, where the note is “polymyxin B 0.75 µg/mL”, the “bacterial growth OD600” value was found to be 0.82. For `COCc1c(C(=O)N2CCN(C3CCCC3)CC2)cnn1-c1ncc2c(n1)-c1ccccc1CC2`, the “bacterial growth OD600” value (polymyxin B 0.75 µg/mL) came out at 0.802. Regarding `COc1ccc(NC(=O)CCC2CCCN(CCCC(F)(F)F)C2)c(C)c1` (configuration not stated), where the note is “polymyxin B 1 µg/mL”, the “bacterial growth OD600” value came to 0.934. Turning to `C=C(C)CN(CC)C(=O)c1cc(OC)ccc1OC1CCN(C2CCCC2)CC1`, the “bacterial growth OD600” value (polymyxin B 1 µg/mL) amounted to 1.31.

Take `COc1ccc(C2CCN(Cc3ccc(Sc4nncn4C)o3)c3ccccc3S2)cc1C` (configuration not stated): the “bacterial growth OD600” value (polymyxin B 0.75 µg/mL) was -0.001. Take `O=C(CSc1ccc2nnc(-c3cccnc3)n2n1)NCCCn1ncc2ccccc21`: the “bacterial growth OD600” value (polymyxin B 0.75 µg/mL) stood at 0.798. For `C=CCCC(=O)N(C)CC1CCCN(CCc2ccccc2OC)C1` (configuration not stated), the “bacterial growth OD600” value (polymyxin B 1 µg/mL) turned out to be 0.79.

`CCCCNc1ccc(C(=O)N2CCC(Oc3cccnc3)CC2)cn1`: where the note is “polymyxin B 0.75 µg/mL”, the “bacterial growth OD600” value was found to be 0.797. As for `O=C(COc1ccccc1)Nc1ccc(N2CCC(NC3C4CC5CC(C4)CC3C5)CC2)cc1` (configuration not stated), for the setting “polymyxin B 0.75 µg/mL”, the “bacterial growth OD600” value is 0.921. On to `CN(C)c1ccc(C(=O)N2CCCCC2CCn2cccn2)cn1` (configuration not stated), for which, under “polymyxin B 1 µg/mL”, the “bacterial growth OD600” value was 0.944. Turning to `COc1cccc(-c2nc3ccc(C(=O)NC(C)Cc4cccnc4)cc3o2)c1` (configuration not stated), the “bacterial growth OD600” value (polymyxin B 1 µg/mL) turned out to be 0.865. For `Cc1ccccc1CCC1CCCN(C(=O)c2ccoc2)C1` (configuration not stated), where the note is “polymyxin B 0.75 µg/mL”, the “bacterial growth OD600” value came to 0.161. In the case of `Cc1ncc2c(c1CNC(=O)/C=C/c1ccccc1F)CCN(C(=O)CCOc1ccccc1)C2`, where the note is “polymyxin B 0.75 µg/mL”, the “bacterial growth OD600” value was found to be 0.006.

Turning to `CC(C)N(C)C(=O)c1cc(COc2cccc(C(F)(F)F)c2)[nH]n1`, the “bacterial growth OD600” value (polymyxin B 1 µg/mL) stood at 1.23.

Consider `O=C(c1cc(COc2cccc(F)c2)[nH]n1)N1CCCCC1c1ccccn1` (configuration not stated), for which the “bacterial growth OD600” value (polymyxin B 0.75 µg/mL) was 0.804. With `O=C(c1csc2nc(-c3ccccc3)cn12)N1CCCCC1c1cccnc1` (configuration not stated), the “bacterial growth OD600” value (polymyxin B 1 µg/mL) turned out to be 0.7.

For `O=C(NCc1ccon1)C1(N2CCCCC2)Cc2ccccc2C1`, the “bacterial growth OD600” value (polymyxin B 0.75 µg/mL) amounted to 0.744.

Regarding `COc1cc(Cl)ccc1OCc1cc(C(=O)N(C)C2CCOC2)no1` (configuration not stated), where the note is “polymyxin B 1 µg/mL”, the “bacterial growth OD600” value stood at 0.871. `CCC(C)CC(=O)NCCN1Cc2cc(OC)ccc2OC(CC)C1` (configuration not stated): the “bacterial growth OD600” value (polymyxin B 0.75 µg/mL) worked out at 0.769. Consider `COCCn1cnc2cc(NC(=O)C3CCCCC3)cc(C(=O)NCC3CCN(C(C)C)CC3)c21`, for which the “bacterial growth OD600” value (polymyxin B 0.75 µg/mL) turned out to be 0.844. In the case of `O=C(Nc1cccc(-c2ccc(F)cc2)c1)C1CCCN(Cc2ccccn2)C1` (configuration not stated), the “bacterial growth OD600” value (polymyxin B 0.75 µg/mL) came out at 0.013. Take `Cc1ncoc1C(=O)NC1CC(C)(C)Cc2nc(C(C)(C)C)ncc21` (configuration not stated): the “bacterial growth OD600” value (polymyxin B 1 µg/mL) was found to be 0.848. Consider `Cc1cccc(-c2cnc(-c3ccncc3)nc2C2CCN(C(=O)c3cccs3)CC2)c1`, for which the “bacterial growth OD600” value (polymyxin B 0.75 µg/mL) was determined as 0.007.

`CCOC(=O)C1(Cc2ccccc2F)CCCN(C(=O)c2ccc3c(c2)OCCO3)C1` (configuration not stated): the “bacterial growth OD600” value (polymyxin B 1 µg/mL) came out at 0.555.

Consider `O=C(CCC1CCCN(Cc2cccn2-c2cccnc2)C1)Nc1ccccc1F` (configuration not stated), for which the “bacterial growth OD600” value (polymyxin B 1 µg/mL) turned out to be 0.911.

For `COc1cccc(C2CCCN2C(=O)c2cn(Cc3ccccc3Cl)nn2)c1` (configuration not stated), under “polymyxin B 1 µg/mL”, the “bacterial growth OD600” value turned out to be 0.206. For the molecule `O=C(NC1CCCC1)c1ccc(N2CCC(NCCC3=CCCCC3)CC2)cc1`, the “bacterial growth OD600” value (polymyxin B 0.75 µg/mL) was found to be 0.767.

Consider `Cc1oc(-c2ccc(NC(=O)Cc3ccccc3)cc2)nc1CNC(=O)Cc1ccccc1F`, for which, where the note is “polymyxin B 0.75 µg/mL”, the “bacterial growth OD600” value was found to be 0.913.

With `COc1cc(Cl)cc(CNC2COc3ccccc3C2)c1OC` (configuration not stated), the “bacterial growth OD600” value (polymyxin B 1 µg/mL) was found to be 1.12. On the same count and under the same terms, the value for `O=C1N(Cc2ccc(F)c(F)c2)CCCC1(O)CNC1CCCC1` (configuration not stated) was 0.942. In the case of `CCN(CC)C1CCN(C(=O)c2cc(Cl)ccc2OC2CCN(C(C)=O)CC2)C1` (configuration not stated), the “bacterial growth OD600” value (polymyxin B 0.75 µg/mL) came to 0.873. `Cc1oc(-c2cc(F)ccc2F)nc1CN1CCCCC1CCN1CCCC1=O` (configuration not stated): the “bacterial growth OD600” value (polymyxin B 1 µg/mL) was found to be 0.776.
